Source: PubChem BioAssay AID493014 (National Center for Advancing Translational Sciences (NCATS), 2011)
This is one part of the list. Shown are side measurements of this screen, not its main read-out; they come without a call. Compounds called inactive in the main read-out are mostly missing here. Potencies come from curve fits of mixed quality, noted in brackets.

Experiment: qHTS Assay to Find Inhibitors of Chronic Active B-Cell Receptor Signaling
Conditions: ABC-DLBCL IkBa-CBG/CBR reporter, luminescence ratio (green luciferase fused to IkBa over red control in TMD8 lymphoma cells), 4 h
Method in brief: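 Doxycycline induced both beetle luciferases in TMD8 lymphoma cells; IKK-driven degradation limits the IkappaBalpha-fused green signal, while red luminescence normalises for cell number and nonspecific effects. Compounds tested up to 46 uM, 4 hrs.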

[1] = measured here: CBR red luminescence, cell number
[2] = measured here: IkBa-CBG green luminescence

COCCn1c(=NC(=O)c2ccc3c(c2)OCCO3)sc2cc(S(N)(=O)=O)ccc21
AC50 [1]: 22.4 µM [rising, single point]

COc1ccc(-c2sc(Nc3ccc(F)c(F)c3F)nc2CCC(=O)NN)cc1
AC50 [1]: 5.62 µM [rising, single point]

CSc1ccccc1OCc1cc(C(=O)NC(C)Cn2cncn2)no1 (stereo unspecified)
AC50 [1]: 35.5 µM [falling, single point]

CCCC1C2C(=O)N(c3ccccc3OCC)C(=O)C2ON1c1ccccc1 (stereo unspecified)
AC50 [1]: 0.146 µM [falling, full curve, poor fit]

CCNC(=O)/C(C#N)=C/c1c(N2CCN(c3ccccc3)CC2)nc2ccccn2c1=O
AC50 [1]: 6.31 µM [rising, full curve]

CCOC(=O)c1cnn(-c2cc(Oc3cccc(C)c3)ncn2)c1N
AC50 [1]: 10.3 µM [rising, partial curve, poor fit]

O=C(NCC(c1ccco1)N1CCN(c2ccc(F)cc2)CC1)C(=O)NC1CCCC1 (stereo unspecified)
AC50 [1]: 16.4 µM [rising, partial curve, poor fit]

Oc1ccc(C2C(c3ccccc3)=NN=C(c3ccc(Cl)cc3)N2O)c(O)c1 (stereo unspecified)
AC50 [1]: 4.61 µM [falling, partial curve]

Cc1cc(C)n(-c2ccc(C(=O)OC(C)C)cc2)n1
AC50 [1]: 35.5 µM [falling, single point]

O=C(c1ccco1)N1CCN=C1SCc1c(F)cccc1Cl
AC50 [1]: 7.94 µM [falling, partial curve]

CS(=O)(=O)c1ccc(-c2csc(-c3cccnc3)n2)cc1
AC50 [1]: 1.26 µM [rising, full curve, poor fit]

O=C(NCC(c1ccco1)N1CCCC1)c1cc2cc(Cl)ccc2o1 (stereo unspecified)
AC50 [1]: 6.51 µM [rising, single point]

O=C(COc1ccccc1O)N1CCN(C(=O)c2ccco2)CC1
AC50 [1]: 16.4 µM [rising, single point]

COc1cc(C(C(=O)NC2CCCCC2)N(Cc2cccs2)C(=O)Cc2c[nH]c3ccccc23)cc(OC)c1OC (stereo unspecified)
AC50 [1]: 0.112 µM [rising, full curve, poor fit]

O=C1CN(C(=O)c2ccccc2[N+](=O)[O-])C(c2ccccc2)c2cc(Br)ccc2N1 (stereo unspecified)
AC50 [1]: 10 µM [falling, partial curve]

S=C(c1cn(CCOc2ccccc2)c2ccccc12)N1CCCC1
AC50 [1]: 32.6 µM [falling, single point]

CN1CCN(CC(=O)N2c3ccccc3C(C)(c3ccc(Cl)cc3)CC2(C)C)CC1 (stereo unspecified)
AC50 [1]: 23.1 µM [falling, single point]

Cc1cc(OCCSc2nnc(-c3cccs3)n2C)ccc1Cl
AC50 [1]: 35.5 µM [falling, single point]

CCCN1C(=O)/C(=N\OCC(=O)Nc2ccc(C(C)C)cc2)c2ccccc21
AC50 [1]: 29.1 µM [falling, single point]

COc1ccc2oc(-c3cccc(NC(=O)CSc4ccc(Cl)cc4)c3)nc2c1
AC50 [1]: 16.4 µM [rising, partial curve, poor fit]

O=C(O)C1CCCN1c1ncnc2ccccc12 (stereo unspecified)
AC50 [1]: 6.51 µM [falling, single point]

O=C1N2CCSC2=NC1(Nc1ccccn1)C(F)(F)F (stereo unspecified)
AC50 [1]: 35.5 µM [falling, single point]

O=C(NNc1ccccc1[N+](=O)[O-])Nc1cccc(Cl)c1
AC50 [1]: 35.5 µM [falling, single point]

O=C(NCc1cccs1)C1CCCN(S(=O)(=O)c2cnc[nH]2)C1 (stereo unspecified)
AC50 [1]: 0.461 µM [falling, full curve, poor fit]

NC(=O)COC(=O)c1cc(-c2ccco2)nc2ccccc12
AC50 [1]: 10 µM [falling, partial curve, poor fit]

O=C(CSc1ncn[nH]1)Nc1nsc(-c2ccccc2)n1
AC50 [1]: 20.6 µM [falling, partial curve]

Cc1c(Br)c(=O)oc2c(Br)c(O)ccc12
AC50 [1]: 0.112 µM [falling, full curve, poor fit]

COc1ccc(C(NC(=O)c2c(F)c(F)c(F)c(F)c2F)c2ccccc2)cc1 (stereo unspecified)
AC50 [1]: 18.4 µM [falling, partial curve]

COc1ccc(S(=O)(=O)N(CC(=O)NCc2ccco2)c2ccccc2)cc1
AC50 [1]: 23.1 µM [falling, partial curve, poor fit]

CCCCNCCOc1ccccc1-c1ccccc1
AC50 [1]: 32.6 µM [falling, partial curve, poor fit]

COc1ccc(C)cc1NC(=O)NC1CCN(Cc2ccccc2)CC1
AC50 [1]: 6.51 µM [rising, partial curve, poor fit]
AC50 [2]: 6.51 µM [falling, single point]

Cn1cc(Cl)c(/C=C(\C#N)S(=O)(=O)c2ccccc2)n1
AC50 [1]: 0.251 µM [falling, full curve, poor fit]

COc1cc2c(cc1NC(=O)c1ccco1)CCCC2
AC50 [1]: 2.59 µM [rising, full curve, poor fit]

Nc1nnc(SCCCOc2ccc(F)cc2)s1
AC50 [1]: 5.62 µM [falling, full curve]

CCOc1ccc(CN2C(=O)c3ccccc3C2C(=O)NCc2cccnc2)cc1 (stereo unspecified)
AC50 [1]: 13 µM [falling, partial curve, poor fit]

Cc1nc(SCCOc2ccccc2F)[nH]c(=O)c1Cc1ccccc1
AC50 [2]: 3.55 µM [rising, partial curve, poor fit]

CCCc1cc(=O)[nH]c(-n2[nH]c3c(c2=O)CCCC3)n1
AC50 [1]: 11.2 µM [falling, partial curve]

O=C(CS(=O)(=O)c1cn(Cc2ccc(F)cc2)c2ccccc12)N1CCCCC1
AC50 [1]: 0.0651 µM [rising, full curve, poor fit]

O=C(Nc1ccc(Br)cc1)c1ccc2c(c1)OCO2
AC50 [1]: 15.8 µM [falling, single point]

COC(=O)c1nc(NC(=O)c2ccccc2Cl)n[nH]1
AC50 [1]: 2.06 µM [rising, partial curve, poor fit]

COc1cccc2c(=O)c3ccccc3oc12
AC50 [1]: 0.794 µM [falling, full curve, poor fit]

COc1cccc(OC)c1OCCCOc1ccc([N+](=O)[O-])cc1Cl
AC50 [1]: 6.51 µM [rising, full curve, poor fit]

O=C(NCCOc1ccccc1)c1n[nH]c(=O)c2ccccc12
AC50 [1]: 0.731 µM [rising, partial curve, poor fit]

COc1cc(/C=N\NC(=O)c2nonc2N)c(OC)cc1Br
AC50 [1]: 16.4 µM [rising, partial curve]

CCCCC(=O)N/N=C/c1ccc(-c2ccc([N+](=O)[O-])cc2)o1
AC50 [1]: 14.1 µM [rising, single point]

O=C(CCc1ccccc1)NNC(=O)c1ccccc1Cl
AC50 [1]: 12.6 µM [falling, single point]

Cc1ccc(Nc2nc(CSc3nnc(-c4cccnc4)n3-c3ccccc3C)cs2)cc1
AC50 [1]: 32.6 µM [falling, single point]

COc1cc(C(=O)NNC(=O)c2nn(C)c(=O)c3ccccc23)cc(OC)c1OC
AC50 [1]: 25.9 µM [rising, single point]

COc1cc(NS(=O)(=O)c2ccc(N/C=C\C(=O)c3ccc(F)cc3)cc2)nc(OC)n1
AC50 [1]: 20.6 µM [falling, single point]

CCc1ccc2[nH]c(=O)c(CN(Cc3ccccc3)C(=O)Nc3ccccc3OC)cc2c1
AC50 [1]: 16.4 µM [falling, partial curve, poor fit]

COc1ccc(/C=N/NC(=O)c2cccc(NC(=O)c3ccccc3Cl)c2)cc1
AC50 [1]: 1.12 µM [falling, full curve]
AC50 [2]: 17.8 µM [falling, single point]

COc1ccc(C(=O)Cc2ccc3c(c2)OCO3)c(O)c1
AC50 [1]: 6.51 µM [rising, partial curve, poor fit]

CCCC/C(=N\NC(=O)c1ccc(Br)o1)c1ccccc1
AC50 [1]: 20.6 µM [falling, single point]

CCc1cc(C(c2ccccc2OC)N2CCOCC2)c(NC(=O)c2ccccc2)s1 (stereo unspecified)
AC50 [1]: 35.5 µM [falling, single point]

O=C(O)COc1ccc(-c2nc(-c3ccccc3)c(-c3ccccc3)[nH]2)cc1
AC50 [1]: 6.31 µM [falling, partial curve]

CC(=O)N1CCN(c2ccccc2NC(=O)c2cc3ccccc3o2)CC1
AC50 [1]: 11.2 µM [falling, partial curve]

CC1(C)Cc2c(C#N)c(OCC(=O)c3ccc(Cl)cc3)nc(-c3ccco3)c2CO1
AC50 [1]: 6.51 µM [falling, single point]

Cc1cc(Cl)ccc1NC(=O)NC1CCN(S(=O)(=O)c2ccc(F)cc2)CC1
AC50 [1]: 20.6 µM [falling, single point]

CC(=O)C1=C(c2ccccc2)NC(=O)NC1c1ccc(O)c(O)c1 (stereo unspecified)
AC50 [1]: 35.5 µM [falling, single point]

CSC1=N/C(=C\c2ccc(Br)o2)C(=O)S1
AC50 [1]: 12.6 µM [rising, partial curve, poor fit]

Cc1ccc2c(c1)CCCN2CC(=O)Nc1cccc(S(=O)(=O)N2CCCC2)c1
AC50 [1]: 0.58 µM [rising, full curve, poor fit]

CC(NC(=O)CCN1C(=O)c2ccccc2C1=O)c1ccc2c(c1)CCCC2 (stereo unspecified)
AC50 [1]: 2.06 µM [rising, partial curve]

O=C1CC(N2CCN(c3ccccc3O)CC2)C(=O)N1Cc1ccccc1 (stereo unspecified)
AC50 [1]: 22.4 µM [falling, single point]

CC(=O)c1cccc(NC(=S)NC(=O)c2ccccc2Cl)c1
AC50 [1]: 1.46 µM [falling, partial curve]
